In patent US20240376225A1 (CHILDREN S MEDICAL CENTER, published 2024):
No constants are given. Whether binding was seen depends on the method and setting. Some binding calls cover weakened binding; strength is not graded here.

Assays:
[1] = target: cyno CD21 on CHO cells (cynomolgus monkey); assay: flow cytometry, CHO cells over-expressing cyno CD21
[2] = target: cyno CD21 on CHO cells (cynomolgus monkey); assay: flow cytometry, CHO cells overexpressing cyno CD21
[3] = target: cyno CD21 on CHO cells (cynomolgus monkey); assay: flow cytometry blocking assay on CHO-cyno CD21 cells: Ab15 titrated, then biotinylated human C3d (4.5 ug/ml) detected with streptavidin conjugate; blocked ligand human C3d
[4] = target: purified cynomolgus CD21 ECD protein (cynomolgus monkey); assay: ELISA on coated purified cynomolgus CD21 ECD, Ab15 at 1 ug/ml, detection with goat anti-human IgG Fc-HRP, OD450
[5] = target: purified cynomolgus CD21 ECD protein (cynomolgus monkey); assay: ELISA on coated CD21 ECD protein
[6] = target: cyno CD21 on CHO cells (cynomolgus monkey); assay: flow cytometry, Ab15 titrated on CHO cells overexpressing cyno CD21, anti-human IgG-PE, Geo MFI

binding [1]: binds | binding [2]: binds | binding [3]: binds | binding [4]: binds | binding [5]: binds | binding [6]: binds
B1: Ab15 (antibody, human IgG1, kappa, V domains shown)
VH: QVQLVQSGAEVKKPGSSVKVSCKASGGTFSSYAISWVRQAPGQGLEWMGRIIPILGIANYAQKFQGRVTITADKSTSTAYMELSSLRSEDTAVYYCAREDDSSGYYQDWGQGTLVTVSS
VL: EIVMTQSPATLSLSPGESATLSCRAGQSINSHLAWYQQKPGQSPSLLIYDASTRATGVPARFSGSGFGTEFTLTISSLQSEDFAVYFCQQYEYWYTFGQGTKLEIKR
notes: Tb-labeled in the HTRF assay; also called 36C01; SC38-36C01 (IgG1 version)
